Data source: PubChem BioAssay AID504808 (Drosophila RNAi Screening Center, 2011)
Purpose: 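Chromatin factors that keep E2F targets switched off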 (primary screen). Cell system: Drosophila S2 cells. Reagents: long dsRNA against Drosophila genes. Measured: 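Dual luciferase plate measurements; E2F-specific signal taken as firefly over Renilla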. Reading the numbers: E2F firefly: higher = more E2F reporter activity; Renilla normaliser: higher = more normaliser reporter signal. Call rule: 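a knock-down counted as active when the firefly/Renilla E2F signal rose above 50%, a threshold chosen arbitrarily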.
In all, the deposit lists about 21,000 reagents; shown is an unselected part of those with a known target gene and a result. Of all reagents, 18 (0.084%) are marked active. 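Raw counts without plate normalisation, one of two replicates; the ratio scores behind the calls were not deposited.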 No sequences are given here. Not given: the amount of reagent, the time to read-out.

w (white) [DRSC17233] showed E2F firefly, rep 1 = 88009; Renilla normaliser, rep 1 = 2969; inactive.
With knock-down of w (white) [DRSC18850], the screen gave E2F firefly, rep 1 = 1.20e5; Renilla normaliser, rep 1 = 6331; inactive.
With knock-down of comm3 [DRSC09993], the record shows E2F firefly, rep 1 = 1.72e5; Renilla normaliser, rep 1 = 6443; inactive.
Against comm3 [DRSC09994], the values are E2F firefly, rep 1 = 1.47e5; Renilla normaliser, rep 1 = 7326; inactive.
Depletion of comm3 [DRSC09995] resulted in: E2F firefly, rep 1 = 1.84e5; Renilla normaliser, rep 1 = 8502; inactive.
Against ND-MNLL (NADH dehydrogenase (ubiquinone) MNLL subunit) [DRSC18159], the entry reads E2F firefly, rep 1 = 87092; Renilla normaliser, rep 1 = 4904; inactive.
Naa20A (N(alpha)-acetyltransferase 20 A) [DRSC19579] gave E2F firefly, rep 1 = 1.78e5; Renilla normaliser, rep 1 = 6159; inactive.
With knock-down of SoxN (SoxNeuro) [DRSC03440], the record shows E2F firefly, rep 1 = 1.59e5; Renilla normaliser, rep 1 = 5647; inactive.
With knock-down of CG15473 [DRSC18056], the screen gave E2F firefly, rep 1 = 1.06e5; Renilla normaliser, rep 1 = 5626; inactive.
Against CG15208 [DRSC19654] the deposit lists E2F firefly, rep 1 = 7828; Renilla normaliser, rep 1 = 768; inactive.
With knock-down of Fie (Fire exit) [DRSC08158], the screen gave E2F firefly, rep 1 = 77267; Renilla normaliser, rep 1 = 3962; inactive.
Silencing of Prosalpha4T1 (Proteasome alpha4 subunit, Testis-specific 1) [DRSC16800] resulted in: E2F firefly, rep 1 = 1.17e5; Renilla normaliser, rep 1 = 7455; inactive.
With knock-down of Dop1R2 (Dopamine 1-like receptor 2) [DRSC13958], the screen gave E2F firefly, rep 1 = 87823; Renilla normaliser, rep 1 = 2445; inactive.
Depletion of Dop1R2 (Dopamine 1-like receptor 2) [DRSC15379] resulted in: E2F firefly, rep 1 = 1.23e5; Renilla normaliser, rep 1 = 6652; inactive.
Against CG2616 [DRSC15440], the entry reads E2F firefly, rep 1 = 1.41e5; Renilla normaliser, rep 1 = 6392; inactive.
After knock-down of CG4733 [DRSC15634], the screen gave E2F firefly, rep 1 = 1.43e5; Renilla normaliser, rep 1 = 7172; inactive.
Against CG9993 [DRSC04599] the deposit lists E2F firefly, rep 1 = 97485; Renilla normaliser, rep 1 = 4065; inactive.
Silencing of Sod3 (Superoxide dismutase 3) [DRSC07324] resulted in: E2F firefly, rep 1 = 176; Renilla normaliser, rep 1 = 39; inactive.
Nup358 (Nucleoporin 358kD) [DRSC14410] gave E2F firefly, rep 1 = 63677; Renilla normaliser, rep 1 = 4639; inactive.
THG (tRNA-histidine guanylyltransferase) [DRSC01896] scored E2F firefly, rep 1 = 1.04e5; Renilla normaliser, rep 1 = 4474; inactive.
Against Ip6k (Inositol hexakisphosphate kinase) [DRSC04054], the entry reads E2F firefly, rep 1 = 76814; Renilla normaliser, rep 1 = 3531; inactive.
After knock-down of CG12118 [DRSC17813], the record shows E2F firefly, rep 1 = 8787; Renilla normaliser, rep 1 = 772; inactive.
Ir7d (Ionotropic receptor 7d) [DRSC18010] gave E2F firefly, rep 1 = 52352; Renilla normaliser, rep 1 = 3859; inactive.
Against CG15209 [DRSC19655] the deposit lists E2F firefly, rep 1 = 1.06e5; Renilla normaliser, rep 1 = 6125; inactive.
Piezo [DRSC03092] showed E2F firefly, rep 1 = 94951; Renilla normaliser, rep 1 = 4044; inactive.
After knock-down of GILT3 (Gamma-interferon-inducible lysosomal thiol reductase 3) [DRSC14672], the record shows E2F firefly, rep 1 = 1.03e5; Renilla normaliser, rep 1 = 7277; inactive.
With knock-down of CG31807 [DRSC01550] the results were E2F firefly, rep 1 = 1.32e5; Renilla normaliser, rep 1 = 5554; inactive.
Against CG3927 [DRSC04433], the entry reads E2F firefly, rep 1 = 1.07e5; Renilla normaliser, rep 1 = 4942; inactive.
Knock-down of otu (ovarian tumor) [DRSC18811] came out at: E2F firefly, rep 1 = 77578; Renilla normaliser, rep 1 = 5033; inactive.
For CG42450 [DRSC20022], the values are E2F firefly, rep 1 = 1.31e5; Renilla normaliser, rep 1 = 5534; inactive.
For CG15747 [DRSC19713], the entry reads E2F firefly, rep 1 = 6666; Renilla normaliser, rep 1 = 804; inactive.
Magi [DRSC04247] showed E2F firefly, rep 1 = 80397; Renilla normaliser, rep 1 = 2979; inactive.
For Magi [DRSC04451], the values are E2F firefly, rep 1 = 87782; Renilla normaliser, rep 1 = 3767; inactive.
Silencing of mri (mrityu) [DRSC08259] resulted in: E2F firefly, rep 1 = 66731; Renilla normaliser, rep 1 = 3419; inactive.
Knock-down of Phm (Peptidylglycine-alpha-hydroxylating monooxygenase) [DRSC04639] gave: E2F firefly, rep 1 = 89610; Renilla normaliser, rep 1 = 4823; inactive.
With knock-down of ubl (ubiquitin like) [DRSC04998], the record shows E2F firefly, rep 1 = 1.26e5; Renilla normaliser, rep 1 = 4526; inactive.

2 successive reagents already listed:
Prosalpha4T1 (Proteasome alpha4 subunit, Testis-specific 1) [DRSC16800]: E2F firefly, rep 1 = 1.17e5; Renilla normaliser, rep 1 = 7455; Outcome = inactive
Dop1R2 (Dopamine 1-like receptor 2) [DRSC13958]: E2F firefly, rep 1 = 87823; Renilla normaliser, rep 1 = 2445; Outcome = inactive
